These are yes or no findings as the source states them, for the method shown. Binding seen in cells or lysates may run through a third protein. Some results given as binding are weak or reduced against the parent protein; the word gives no strength. For part of these data: Tags and fused reporters may be left off the sequences shown.
Experiments:
[1] = target: T1, serum response factor (human (endogenous in HASMCs)) (UniProt P11831); test: co-IP; lysates of HASMCs transfected with pCMV-HA or HA-MYOCD; IP with anti-p-p38 MAPK, anti-SRF or anti-MYOCD antibodies; Western blot with the same three antibodies
T1 sequence: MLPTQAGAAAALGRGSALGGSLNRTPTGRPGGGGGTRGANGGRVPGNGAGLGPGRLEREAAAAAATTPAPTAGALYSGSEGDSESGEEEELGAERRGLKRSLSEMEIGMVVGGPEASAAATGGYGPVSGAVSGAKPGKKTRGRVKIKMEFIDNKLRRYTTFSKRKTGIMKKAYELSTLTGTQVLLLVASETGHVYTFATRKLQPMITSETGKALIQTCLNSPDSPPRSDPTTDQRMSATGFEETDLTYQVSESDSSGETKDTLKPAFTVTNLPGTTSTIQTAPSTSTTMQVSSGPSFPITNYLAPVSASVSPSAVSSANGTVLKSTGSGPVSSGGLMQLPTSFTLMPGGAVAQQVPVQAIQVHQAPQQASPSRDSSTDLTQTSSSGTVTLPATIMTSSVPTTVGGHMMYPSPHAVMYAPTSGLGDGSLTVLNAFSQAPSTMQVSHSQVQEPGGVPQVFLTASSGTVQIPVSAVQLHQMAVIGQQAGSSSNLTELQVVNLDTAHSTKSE

By UniProt entry, the sequences of proteins in these tests, tags left out. Residues count along the entry.
UniProt P11362, residues 22-822: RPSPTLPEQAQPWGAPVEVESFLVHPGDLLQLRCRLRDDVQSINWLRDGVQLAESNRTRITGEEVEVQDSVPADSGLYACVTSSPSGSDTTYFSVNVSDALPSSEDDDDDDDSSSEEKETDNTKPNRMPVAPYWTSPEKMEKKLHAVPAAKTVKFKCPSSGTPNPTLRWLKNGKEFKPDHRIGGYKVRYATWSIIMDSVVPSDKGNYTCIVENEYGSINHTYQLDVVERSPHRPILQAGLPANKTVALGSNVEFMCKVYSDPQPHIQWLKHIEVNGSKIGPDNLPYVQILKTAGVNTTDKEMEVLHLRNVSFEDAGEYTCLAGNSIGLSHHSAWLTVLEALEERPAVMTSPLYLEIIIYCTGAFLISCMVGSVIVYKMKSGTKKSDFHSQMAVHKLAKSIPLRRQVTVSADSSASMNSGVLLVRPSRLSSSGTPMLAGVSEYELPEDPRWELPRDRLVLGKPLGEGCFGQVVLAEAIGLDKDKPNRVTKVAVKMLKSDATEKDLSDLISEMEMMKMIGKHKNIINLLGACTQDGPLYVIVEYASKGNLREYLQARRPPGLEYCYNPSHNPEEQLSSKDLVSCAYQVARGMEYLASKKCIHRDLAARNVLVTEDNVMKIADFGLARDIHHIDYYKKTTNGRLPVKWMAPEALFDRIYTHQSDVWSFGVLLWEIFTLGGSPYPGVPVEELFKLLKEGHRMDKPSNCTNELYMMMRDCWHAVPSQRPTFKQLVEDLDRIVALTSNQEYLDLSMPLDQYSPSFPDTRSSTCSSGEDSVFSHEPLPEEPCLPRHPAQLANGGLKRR

[2] = target: T2, HA-tagged serum response factor (UniProt P11831); test: co-IP; lysates of HASMCs transfected with pCMV-HA, HA-SRF, or HA-SRF plus siFGF21; IP with HA-tagged magnetic beads; blot with anti-MYOCD, SRF and p38 MAPK antibodies
T2 sequence: T1 sequence

[3] = target: phosphorylated FGF receptor 1 (human (endogenous in HASMCs)) (UniProt P11362); test: co-IP; lysates of HASMCs transfected with HA-FGF21; IP with anti-p-FGFR1 or anti-p-TAK1 antibodies; Western blot with the same two antibodies

B1: HA-tagged myocardin (protein, UniProt Q8IZQ8 1-938)
chain: MTLLGSEHSLLIRSKFRSVLQLRLQQRRTQEQLANQGIIPPLKRPAEFHEQRKHLDSDKAKNSLKRKARNRCNSADLVNMHILQASTAERSIPTAQMKLKRARLADDLNEKIALRPGPLELVEKNILPVDSAVKEAIKGNQVSFSKSTDAFAFEEDSSSDGLSPDQTRSEDPQNSAGSPPDAKASDTPSTGSLGTNQDLASGSENDRNDSASQPSHQSDAGKQGLGPPSTPIAVHAAVKSKSLGDSKNRHKKPKDPKPKVKKLKYHQYIPPDQKAEKSPPPMDSAYARLLQQQQLFLQLQILSQQQQQQQHRFSYLGMHQAQLKEPNEQMVRNPNSSSTPLSNTPLSPVKNSFSGQTGVSSFKPGPLPPNLDDLKVSELRQQLRIRGLPVSGTKTALMDRLRPFQDCSGNPVPNFGDITTVTFPVTPNTLPNYQSSSSTSALSNGFYHFGSTSSSPPISPASSDLSVAGSLPDTFNDASPSFGLHPSPVHVCTEESLMSSLNGGSVPSELDGLDSEKDKMLVEKQKVINELTWKLQQEQRQVEELRMQLQKQKRNNCSEKKPLPFLAASIKQEEAVSSCPFASQVPVKRQSSSSECHPPACEAAQLQPLGNAHCVESSDQTNVLSSTFLSPQCSPQHSPLGAVKSPQHISLPPSPNNPHFLPSSSGAQGEGHRVSSPISSQVCTAQMAGLHSSDKVGPKFSIPSPTFSKSSSAISEVTQPPSYEDAVKQQMTRSQQMDELLDVLIESGEMPADAREDHSCLQKVPKIPRSSRSPTAVLTKPSASFEQASSGSQIPFDPYATDSDEHLEVLLNSQSPLGKMSDVTLLKIGSEEPHFDGIMDGFSGKAAEDLFNAHEILPGPLSPMQTQFSPSSVDSNGLQLSFTESPWETMEWLDLTPPNSTPGFSALTTSSPSIFNIDFLDVTDLNLNSSMDLHLQQW
In the case of B1, the binding [1] is reported as “binds”.

B2: myocardin (protein, UniProt Q8IZQ8 1-938)
chain: B1 chain
In the case of B2, the binding [2] is reported as “binds”.

B3: phosphorylated transforming growth factor-β-activated kinase 1 (enzyme, UniProt O43318 1-606)
chain: MSTASAASSSSSSSAGEMIEAPSQVLNFEEIDYKEIEVEEVVGRGAFGVVCKAKWRAKDVAIKQIESESERKAFIVELRQLSRVNHPNIVKLYGACLNPVCLVMEYAEGGSLYNVLHGAEPLPYYTAAHAMSWCLQCSQGVAYLHSMQPKALIHRDLKPPNLLLVAGGTVLKICDFGTACDIQTHMTNNKGSAAWMAPEVFEGSNYSEKCDVFSWGIILWEVITRRKPFDEIGGPAFRIMWAVHNGTRPPLIKNLPKPIESLMTRCWSKDPSQRPSMEEIVKIMTHLMRYFPGADEPLQYPCQYSDEGQSNSATSTGSFMDIASTNTSNKSDTNMEQVPATNDTIKRLESKLLKNQAKQQSESGRLSLGASRGSSVESLPPTSEGKRMSADMSEIEARIAATTAYSKPKRGHRKTASFGNILDVPEIVISGNGQPRRRSIQDLTVTGTEPGQVSSRSSSPSVRMITTSGPTSEKPTRSHPWTPDDSTDTNGSDNSIPMAYLTLDHQLQPLAPCPNSKESMAVFEQHCKMAQEYMKVQTEIALLLQRKQELVAELDQDEKDQQNTSRLVQEHKKLLDENKSLSTYYQQCKKQLEVIRSQQQKRQGTS
modifications: phosphorylated (p-TAK1); sites not stated
With B3 the binding [3] was “binds”.

From paper PMC12324144
